Experiments:
[1] = tested on: homozygous scn1Lab−/− mutants; parameters: species or system Danio rerio; details: in vivo
Method: Zebrafish embryos (Danio rerio) heterozygous for the scn1Lab mutation (scn1Lab+/−) were backcrossed with Tupfel longfin wildtype (WT scn1Lab+/+). Adult zebrafish were housed at 28.0° C., on a 14/10 hour light/dark cycle under standard aquaculture conditions. Fertilized eggs were collected via natural spawning. Anaesthetized fish (tricaine 0.02%) were fin-clipped and genotyped by PCR. After genotyping, samples were purified (MinElute PCR Purification Kit) and sequenced by LGC Genomics. Age-matched Tupfel longfin wildtype larvae were used as control group (WT scn1Lab+/+).
To evaluate the locomotor activity of homozygous scn1Lab−/− mutants and control WT scn1Lab+/+, zebrafish larvae were placed in a 96-well plate in 100 μL of embryo medium from 4 to 8 dpf. […] The total distance in large movements was recorded and quantified using ZebraLab™ software (Viewpoint, Lyon, France). […]
Scn1Lab−/− mutants and WT scn1Lab+/+ larvae were arrayed in the same plate and treated at 6 days post fertilization (dpf) with fenfluramine (25 μM), functional analogs (at their MTC) or VHC in individual wells of a 96-well plate. […] Furthermore these larvae were analyzed after more than 22 hours incubation (7 dpf), i.e. long treatment. The total locomotor activity was quantified using the parameter lardist and plotted in cm. […]

[2] = tested on: homozygous scn1Lab−/− mutants; parameters: species or system Danio rerio; details: in vivo; remark: listed apart in the source
Method: Epileptiform activity was measured by open-field recordings in the zebrafish larval forebrain at 7 dpf. Homozygous scn1Lab−/− mutants and control WT scn1Lab+/+ were embedded in 2% low-melting-point agarose (Invitrogen) to position a glass electrode into the forebrain. […] Single recordings were performed for 10 min. […] Spontaneous epileptiform events were taken into account when the amplitude exceeded three times the background noise and lasted longer than 50 milliseconds (ms).
Epileptiform activity was measured by open-field recordings in the zebrafish larval forebrain at 7 dpf, as described above. […] Recordings of 7 dpf larvae, from at least 8 scn1Lab−/− mutant larvae were taken per experimental condition. […] Electrographic recordings were quantified for the different treatment conditions.

Structure (SMILES): CCN(CC)C(=O)N[C@H]1C=C2c3cccc4[nH]cc(c34)C[C@H]2N(C)C1 [lisuride, 3-[(6aR,9S)-7-methyl-6,6a,8,9-tetrahydro-4H-indolo[4,3-fg]quinoline-9-yl]-1,1-diethylurea]
- inhibition of locomotor activity in mutant fish embryos (Example 2) [1]: potent inhibitors
- inhibition of epileptiform activity in mutant fish embryos (Example 2) [2]: potent inhibitors

From patent US20180325909A1, “COMBINATION TREATMENT OF SPECIFIC FORMS OF EPILEPSY” (ZOGENIX INTERNATIONAL LIMITED, priority 2015, published 2018)
